Results deposited as PubChem BioAssay AID1224830 (NIAID, 2016).
This is an unselected part of about 18,000 reagents tested. Of all reagents, about 2,900 (16%) were called active. 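Calls are made per well; low scores hint the gene aids the LPS response, high scores that it dampens it.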 A number with no mark means an inactive call. Repeated entries: four replicate wells of each siRNA pool. No sequences are given here.

Aim: 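Genes whose knock-down alters the TNF-alpha reporter response to LPS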 (primary screen)
Cell system: human THP-1 monocytic leukaemia cells, TNF dual-luciferase reporter clone, PMA-differentiated to macrophage-like cells
Reagent: siRNA pool against human genes, 50 nM
Timing: LPS for 4 h, given about 3 days after siRNA transfection
Challenge: bacterial LPS (TLR4 ligand), 10 ng/ml
Measurement: 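Ratio of firefly to renilla light, scaled to the plate median and expressed as a robust z-score per replicate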
Direction: TNF reporter robust z-score: higher = stronger TNF reporter response to LPS
Active means: 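a well is active when its z-score exceeds 2.8 or falls below -1.5; control wells carry no call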

IFNK
- TNF reporter robust z-score: 0.66

IFNK
- TNF reporter robust z-score: 0.87

IFNK
- TNF reporter robust z-score: -0.16

IFNK
- TNF reporter robust z-score: 1.91

DRGX
- TNF reporter robust z-score: 0.45

DRGX
- TNF reporter robust z-score: 2.57

DRGX
- TNF reporter robust z-score: 1.35

DRGX
- TNF reporter robust z-score: 0.34

ACTN3
- TNF reporter robust z-score: -0.4

ACTN3
- TNF reporter robust z-score: -0.89

ACTN3
- TNF reporter robust z-score: -0.79

ACTN3
- TNF reporter robust z-score: -0.61

ITIH5
- TNF reporter robust z-score: 3.14 (active)

ITIH5
- TNF reporter robust z-score: 0.91

ITIH5
- TNF reporter robust z-score: 0.2

ITIH5
- TNF reporter robust z-score: 4.22 (active)

ADCY2
- TNF reporter robust z-score: 2.77

ADCY2
- TNF reporter robust z-score: 2.54

ADCY2
- TNF reporter robust z-score: 0.42

ADCY2
- TNF reporter robust z-score: 0.63

NEU1
- TNF reporter robust z-score: 0.8

NEU1
- TNF reporter robust z-score: 1.49

NEU1
- TNF reporter robust z-score: 0.87

NEU1
- TNF reporter robust z-score: 1.81

RFTN1
- TNF reporter robust z-score: 1.04

RFTN1
- TNF reporter robust z-score: 0.84

RFTN1
- TNF reporter robust z-score: 0.75

RFTN1
- TNF reporter robust z-score: 1.17

PCDHGA2
- TNF reporter robust z-score: 0.03

PCDHGA2
- TNF reporter robust z-score: -0.67

PCDHGA2
- TNF reporter robust z-score: -0.3

PCDHGA2
- TNF reporter robust z-score: 0.64

KPNA5
- TNF reporter robust z-score: -0.61

KPNA5
- TNF reporter robust z-score: 0.26

KPNA5
- TNF reporter robust z-score: 0.17

KPNA5
- TNF reporter robust z-score: 1.2

CAMKK2
- TNF reporter robust z-score: -0.27

CAMKK2
- TNF reporter robust z-score: -0.04

CAMKK2
- TNF reporter robust z-score: -0.13

CAMKK2
- TNF reporter robust z-score: -0.7

CEACAM5
- TNF reporter robust z-score: -0.87

CEACAM5
- TNF reporter robust z-score: -0.64

CEACAM5
- TNF reporter robust z-score: 0.37

CEACAM5
- TNF reporter robust z-score: 0.11

SERPINA10
- TNF reporter robust z-score: -0.19

SERPINA10
- TNF reporter robust z-score: 0.36

SERPINA10
- TNF reporter robust z-score: -0.21

SERPINA10
- TNF reporter robust z-score: -1.27
